At least one structure is not confirmed: it was looked up by name or label, or the drawing left a doubt.
Tests used:
[1] = Taxol aqueous solubility with GUNW-3 micelles for IV injection; format: physicochemical; settings: Taxol 1 mg/mL, FIG. 20
[2] = Critical micellar concentration (CMC) using pyrene fluorescence probe; format: physicochemical

## CC(C)CCCC(C)C1CCC2C3CC=C4CC(OCCOCCOC(=O)CCSCC(NC(=O)CCC(N)C(=O)O)C(=O)NCC(=O)O)CC[C@@]4(C)C3CC[C@@]12C (some centres unmarked) [GUNW-3]
[1]
  appearance of Taxol IV solution: remained as a clear solution
[2]
  CMC: 3.9 µM

Source: US20200048305A1, “GLUTATHIONE-CHOLESTEROL DERIVATIVES AS BRAIN TARGETING AGENTS” (South Dakota Board of Regents, priority 2018, published 2020)
